Assay results reported in PMC7819943, “Rice protein-binding microarrays: a tool to detect cis-acting elements near promoter regions in rice”.
Some of the results follow.

Molecular target: T1, OsSMF1 (Oryza sativa, UniProt Q6ZLB0 1-436)
T1 sequence: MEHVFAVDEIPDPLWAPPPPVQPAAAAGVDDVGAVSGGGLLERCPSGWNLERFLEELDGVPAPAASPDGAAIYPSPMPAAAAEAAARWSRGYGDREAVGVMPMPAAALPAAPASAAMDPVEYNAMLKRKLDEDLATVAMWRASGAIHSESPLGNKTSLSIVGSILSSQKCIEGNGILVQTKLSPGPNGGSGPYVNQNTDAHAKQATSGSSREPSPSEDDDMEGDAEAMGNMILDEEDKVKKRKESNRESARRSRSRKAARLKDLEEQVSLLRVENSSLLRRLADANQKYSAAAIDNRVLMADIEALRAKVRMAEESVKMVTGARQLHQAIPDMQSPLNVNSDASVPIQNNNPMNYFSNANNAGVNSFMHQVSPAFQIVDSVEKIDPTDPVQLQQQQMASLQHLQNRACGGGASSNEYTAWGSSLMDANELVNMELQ
Test: protein-binding microarray (RPBM); PBS, 2% BSA, 51.3 ng/ul salmon testes DNA, 50 uM zinc acetate, 200 nM TF, 25 C, 1 h; high values mean tight binding
Settings: protein: recombinant; tags: N-terminal polyhistidine and DsRed monomer fusion (pET32a); chain copies: 2; label: CyDye5-dUTP incorporated in the synthesized complementary strand; 3' TTTTT single-stranded linker to array surface; dsDNA, one strand shown
Procedure, shortened: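 Binding signal is defined as the fluorescence intensity of each feature in arbitrary units, read on an Axon 4000B scanner. Transcription factors with N-terminal polyhistidine and DsRed fusions came from E. coli BL21-CodonPlus and were purified on Ni–NTA. They were incubated at 200 nM for 1 h at 25 °C on a custom Agilent array that had been made double-stranded with Cy5-dUTP, with 50 µM zinc acetate present, and the array was washed.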

Row | Sequence | binding signal
1 | ACTCCAGCACCTTCTCGTCCATGATCCGCGGCGGCCCCAGCGGAGTCACCTAGTGCAG | 3210 fluorescence intensity (a.u.)
2 | GGTGGGTGCATCCAATGTCGATGTGGTTAGCGGCGGTGAACGGAGTCACCTAGTGCAG | 3490 fluorescence intensity (a.u.)
3 | TTGCATGTTGTTCTTCGTCAAACATCATCTGCATATAATGCGGAGTCACCTAGTGCAG | 3190 fluorescence intensity (a.u.)
4 | TACTACTAATAATCCTTTTCGGTGAAGGTGGTGACGTCGTCGGAGTCACCTAGTGCAG | 4660 fluorescence intensity (a.u.)
5 | GGTTGTTCTAACAAATTGTTTATAAAACAATTTGATTTTGCGGAGTCACCTAGTGCAG | 3570 fluorescence intensity (a.u.)
6 | TAGGATACTGACTCATGTTGCTGCTGCTCTTTTCGTCTATCGGAGTCACCTAGTGCAG | 8360 fluorescence intensity (a.u.)
7 | AATTGAAGAAACGATGACTACGTACTTAATTCCTCGTCTACGGAGTCACCTAGTGCAG | 4340 fluorescence intensity (a.u.)
8 | GGCACATACGCGTTCGTACGTGTCGGCACATTTCACACCACGGAGTCACCTAGTGCAG | 3980 fluorescence intensity (a.u.)
9 | AATAATTTTAGCTGTGTTGTCTTGGCAGGCGCCGGCGTGTCGGAGTCACCTAGTGCAG | 3620 fluorescence intensity (a.u.)
10 | GCACGGCAGCTGACACGGGAACTCGCCGCGATCCCCGCCGCGGAGTCACCTAGTGCAG | 3260 fluorescence intensity (a.u.)
11 | CGGTCCATTCATCAACCCACGTCATCGCCCAATCCGCAGCCGGAGTCACCTAGTGCAG | 25300 fluorescence intensity (a.u.)
12 | AGCATTCACCCAGCATTAGCCGGTTTCACAACAGCATCATCGGAGTCACCTAGTGCAG | 4090 fluorescence intensity (a.u.)
13 | GCCTTAGTTCTATAGTGGGCCAAAATATATCCGGCGCTAGCGGAGTCACCTAGTGCAG | 3410 fluorescence intensity (a.u.)
14 | TCAAAATTTGATAGCTGCTTATAAGCTGAAAGACAAACGACGGAGTCACCTAGTGCAG | 21900 fluorescence intensity (a.u.)
15 | GTGTGTAATTGTTGCGTACGTCAATGTGGCAGATGAGAGGCGGAGTCACCTAGTGCAG | 6610 fluorescence intensity (a.u.)
16 | ATATACGGAGTATATATACACCACCTCACCACCAATCAACCGGAGTCACCTAGTGCAG | 3590 fluorescence intensity (a.u.)
17 | ACACATGCCCAGATAGTTTTCTTTGTCATCTCATTCTGCACGGAGTCACCTAGTGCAG | 3820 fluorescence intensity (a.u.)
18 | TCTGTTTGAATTATTGAATTCCATGTGGAAGTGCACAGAGCGGAGTCACCTAGTGCAG | 3150 fluorescence intensity (a.u.)
19 | AGGTCGTGACACGCCACGTCACGCTTGGGACCACCCGTCGCGGAGTCACCTAGTGCAG | 24200 fluorescence intensity (a.u.)
20 | AATGAGTTGAAGGAAGCTATCTCCGCTGTACGTGGCAGTCCGGAGTCACCTAGTGCAG | 9380 fluorescence intensity (a.u.)
21 | AGAAACACCTGCTCCTTGTCACGTCTATCCACCAATTAATCGGAGTCACCTAGTGCAG | 6020 fluorescence intensity (a.u.)

A few values from the results shown:
Value of TCAAAATTTGATAGCTGCTTATAAGCTGAAAGACAAACGACGGAGTCACCTAGTGCAG under binding signal: 21900 fluorescence intensity (a.u.)
Value of CGGTCCATTCATCAACCCACGTCATCGCCCAATCCGCAGCCGGAGTCACCTAGTGCAG under binding signal: 25300 fluorescence intensity (a.u.)

Continuation:

Row | Sequence | binding signal
22 | CCAGTCGAATCACAACCTCCCTCGCTCCCTCTGACCCTCTCGGAGTCACCTAGTGCAG | 7150 fluorescence intensity (a.u.)
23 | ATGGAGGTGTTGCCTTGCTGACTCTCTTTCCCTTTGGGTGCGGAGTCACCTAGTGCAG | 4870 fluorescence intensity (a.u.)
24 | GTAGCTGTTAAGTTCCATCTCGTCAGCAGCTGCCTGCAGACGGAGTCACCTAGTGCAG | 3210 fluorescence intensity (a.u.)
25 | TGGAGATCGAAACCCTCTGTGAGTGACACGTGGACCAGCACGGAGTCACCTAGTGCAG | 15500 fluorescence intensity (a.u.)
26 | TCGTCGCCGGCGGGATGGCCGGTCGTCCGTCAGCATCCTCCGGAGTCACCTAGTGCAG | 4180 fluorescence intensity (a.u.)
27 | CCTTTCTCCCGAAAATACGGGCGCACACGTACTCCGCATCCGGAGTCACCTAGTGCAG | 3780 fluorescence intensity (a.u.)
28 | CCGGGTTAGCTTTTGGTTGCACGAGATGATTACGAGTGTGCGGAGTCACCTAGTGCAG | 20000 fluorescence intensity (a.u.)
29 | AAGCAAGTAAATAAATGCCACTCCAAAGAATCATAGTTGTCGGAGTCACCTAGTGCAG | 3680 fluorescence intensity (a.u.)
30 | TAGCCAACGTGCATTCCGGCCTCGTGCTTCCCCTTACTCGCGGAGTCACCTAGTGCAG | 4290 fluorescence intensity (a.u.)
31 | ATTCTTCTCCAGGGGACTAACCCATCCCACTCACCTCTAACGGAGTCACCTAGTGCAG | 3370 fluorescence intensity (a.u.)
32 | AACTAATTCGCCCTTCCTCCTCCACGCCCTCTCGCTACCACGGAGTCACCTAGTGCAG | 3400 fluorescence intensity (a.u.)
33 | ATCTTAAGCTCCTCATTTCATCTATGATTGGCTTGCTTTACGGAGTCACCTAGTGCAG | 3180 fluorescence intensity (a.u.)
34 | AAGTGCCTATGTCATCTCCAAGCATATAAGCAATACGTGGCGGAGTCACCTAGTGCAG | 9520 fluorescence intensity (a.u.)
35 | TGGTTGTAACTAACACGTATAGTAACGCCTGCTTATCTCGCGGAGTCACCTAGTGCAG | 3370 fluorescence intensity (a.u.)
36 | GGTGACAATATATCATATTATTAATGATCACATGTGTTGGCGGAGTCACCTAGTGCAG | 4560 fluorescence intensity (a.u.)
37 | TACTCCTACTTGTTTCCAGTACTTGGTATCATGTCTAGCACGGAGTCACCTAGTGCAG | 4330 fluorescence intensity (a.u.)
38 | AATTGGTTTTCTTAACATGCTATCATCATAACGTAATGCACGGAGTCACCTAGTGCAG | 3420 fluorescence intensity (a.u.)
39 | TAATAAGATGAAAAGCTACTGAATTTGTAATCAGGAGATACGGAGTCACCTAGTGCAG | 3480 fluorescence intensity (a.u.)
40 | ATCTGGCATAGAAACGTTGTCACTCTCATCGGCTACTGCCCGGAGTCACCTAGTGCAG | 19300 fluorescence intensity (a.u.)
41 | CCGCTCCACTCTCCACCCGGGATGGCGGACGCCACGCACGCGGAGTCACCTAGTGCAG | 5350 fluorescence intensity (a.u.)
42 | ATCCGGTCTTGTGGTCAACAGACGAATTTCGAACTCGACGCGGAGTCACCTAGTGCAG | 3160 fluorescence intensity (a.u.)
